Experimental findings from PMC6250434 are described below.

Protein sequences, listed by entry. Tags and fused reporters are not part of them.
UniProt O14980: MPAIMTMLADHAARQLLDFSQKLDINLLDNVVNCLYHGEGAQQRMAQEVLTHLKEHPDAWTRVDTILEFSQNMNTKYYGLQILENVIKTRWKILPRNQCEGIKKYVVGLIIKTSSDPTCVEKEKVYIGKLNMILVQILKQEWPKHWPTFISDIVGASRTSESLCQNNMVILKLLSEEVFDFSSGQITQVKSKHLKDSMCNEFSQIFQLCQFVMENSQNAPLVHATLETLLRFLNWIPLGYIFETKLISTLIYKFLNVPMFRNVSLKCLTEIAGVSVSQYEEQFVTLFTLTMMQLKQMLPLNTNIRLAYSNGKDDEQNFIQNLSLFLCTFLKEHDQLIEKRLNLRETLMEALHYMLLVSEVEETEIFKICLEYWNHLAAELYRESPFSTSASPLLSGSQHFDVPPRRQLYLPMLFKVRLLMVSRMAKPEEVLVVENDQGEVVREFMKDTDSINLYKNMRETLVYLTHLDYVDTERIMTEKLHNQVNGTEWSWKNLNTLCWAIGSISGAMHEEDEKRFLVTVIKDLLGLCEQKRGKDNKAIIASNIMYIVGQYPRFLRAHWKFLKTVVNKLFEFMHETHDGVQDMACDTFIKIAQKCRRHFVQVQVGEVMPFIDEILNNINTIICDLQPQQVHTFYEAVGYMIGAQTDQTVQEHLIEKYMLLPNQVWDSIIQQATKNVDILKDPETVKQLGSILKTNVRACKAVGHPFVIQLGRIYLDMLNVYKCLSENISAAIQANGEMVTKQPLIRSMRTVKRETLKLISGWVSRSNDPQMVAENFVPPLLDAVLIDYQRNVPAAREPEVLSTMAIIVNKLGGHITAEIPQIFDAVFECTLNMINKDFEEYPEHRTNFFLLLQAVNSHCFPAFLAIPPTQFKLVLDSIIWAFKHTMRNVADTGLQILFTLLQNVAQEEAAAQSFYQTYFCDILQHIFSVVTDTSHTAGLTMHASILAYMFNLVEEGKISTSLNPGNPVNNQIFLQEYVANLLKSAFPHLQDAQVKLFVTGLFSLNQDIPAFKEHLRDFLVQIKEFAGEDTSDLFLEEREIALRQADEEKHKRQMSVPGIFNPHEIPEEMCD
UniProt Q14974: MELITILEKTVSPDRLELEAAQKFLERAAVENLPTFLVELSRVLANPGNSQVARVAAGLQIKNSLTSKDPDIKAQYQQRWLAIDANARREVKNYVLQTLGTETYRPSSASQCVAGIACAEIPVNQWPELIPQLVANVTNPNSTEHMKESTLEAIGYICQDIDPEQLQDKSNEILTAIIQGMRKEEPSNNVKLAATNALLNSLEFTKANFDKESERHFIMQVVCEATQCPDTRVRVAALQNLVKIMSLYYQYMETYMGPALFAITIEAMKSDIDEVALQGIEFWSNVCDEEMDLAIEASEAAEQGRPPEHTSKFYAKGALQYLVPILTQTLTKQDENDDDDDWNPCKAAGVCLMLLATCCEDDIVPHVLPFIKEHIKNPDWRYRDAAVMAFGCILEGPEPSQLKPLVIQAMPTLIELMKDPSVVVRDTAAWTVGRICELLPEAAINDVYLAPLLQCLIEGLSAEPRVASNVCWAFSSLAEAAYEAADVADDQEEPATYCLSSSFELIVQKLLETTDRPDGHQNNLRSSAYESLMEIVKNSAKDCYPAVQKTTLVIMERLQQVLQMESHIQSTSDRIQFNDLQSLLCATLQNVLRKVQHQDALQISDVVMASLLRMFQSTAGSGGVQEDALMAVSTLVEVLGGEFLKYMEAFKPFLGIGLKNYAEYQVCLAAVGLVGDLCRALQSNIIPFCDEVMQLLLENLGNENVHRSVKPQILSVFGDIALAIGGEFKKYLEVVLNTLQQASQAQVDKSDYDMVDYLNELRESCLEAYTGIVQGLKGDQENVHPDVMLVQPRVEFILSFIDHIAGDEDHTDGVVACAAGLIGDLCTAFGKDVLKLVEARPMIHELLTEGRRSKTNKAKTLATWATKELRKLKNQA
UniProt Q9NWT6: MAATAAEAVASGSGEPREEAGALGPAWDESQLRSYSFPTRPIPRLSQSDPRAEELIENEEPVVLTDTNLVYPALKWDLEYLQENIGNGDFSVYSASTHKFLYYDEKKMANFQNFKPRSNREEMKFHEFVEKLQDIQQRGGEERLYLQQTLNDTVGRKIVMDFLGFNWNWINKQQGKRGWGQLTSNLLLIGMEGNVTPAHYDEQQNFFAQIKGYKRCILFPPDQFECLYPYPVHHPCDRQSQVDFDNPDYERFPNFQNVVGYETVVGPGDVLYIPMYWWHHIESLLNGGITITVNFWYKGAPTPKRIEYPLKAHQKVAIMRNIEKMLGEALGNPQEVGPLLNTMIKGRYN
UniProt Q16665: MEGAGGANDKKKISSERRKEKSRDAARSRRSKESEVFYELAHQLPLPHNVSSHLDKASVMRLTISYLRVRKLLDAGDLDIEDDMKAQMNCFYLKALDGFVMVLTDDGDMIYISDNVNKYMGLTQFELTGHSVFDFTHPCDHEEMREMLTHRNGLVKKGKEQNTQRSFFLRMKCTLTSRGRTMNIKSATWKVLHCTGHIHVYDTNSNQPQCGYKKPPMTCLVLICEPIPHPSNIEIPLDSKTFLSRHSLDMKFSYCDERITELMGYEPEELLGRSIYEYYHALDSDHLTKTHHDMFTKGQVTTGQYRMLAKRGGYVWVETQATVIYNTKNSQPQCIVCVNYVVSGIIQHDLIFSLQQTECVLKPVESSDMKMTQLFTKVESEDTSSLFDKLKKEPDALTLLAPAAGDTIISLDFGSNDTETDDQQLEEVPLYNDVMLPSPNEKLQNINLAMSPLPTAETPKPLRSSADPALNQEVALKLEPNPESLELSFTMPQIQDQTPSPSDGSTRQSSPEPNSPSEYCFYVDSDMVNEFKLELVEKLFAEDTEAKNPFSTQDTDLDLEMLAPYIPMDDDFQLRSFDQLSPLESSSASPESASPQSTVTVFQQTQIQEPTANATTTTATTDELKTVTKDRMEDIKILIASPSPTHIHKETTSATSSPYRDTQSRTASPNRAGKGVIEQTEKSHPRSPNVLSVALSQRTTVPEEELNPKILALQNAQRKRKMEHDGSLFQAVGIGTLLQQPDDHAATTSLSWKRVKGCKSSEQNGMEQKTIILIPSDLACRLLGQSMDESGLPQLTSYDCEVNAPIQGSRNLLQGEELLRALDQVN

Results are given in words; binding and its absence hold for the method and conditions named. Binding seen in cells or lysates may run through a third protein. Some results given as binding are weak or reduced against the parent protein; the word gives no strength.

The target in assay [1] is exportin1 (chromosome region maintenance 1, CRM1) (human (endogenous in U2OS)) (UniProt O14980). In words: co-IP; total lysates of untransfected U2OS cells immunoprecipitated with anti-exportin1 antibody or control IgG, blotted for endogenous FIH; pNAS buffer, 16 h at 4°C.
Assay [2] concerns the target importin β1 (human (endogenous in U2OS)) (UniProt Q14974). In words: co-IP; total lysates of U2OS cells transfected with control siRNA and treated with DMSO or DMOG (1 mM) for 3 h; immunoprecipitated with anti-importin β1 antibody or control IgG, blotted for FIH and HIF1α; pNAS buffer, 16 h at 4°C.

For the substance “Factor inhibiting HIF (FIH) (from UniProt Q9NWT6 1-349) (enzyme)”, the binding entry in assay [1] was “binds”.

For “Hypoxia-inducible factor 1 alpha (HIF1α) (from UniProt Q16665 1-826)”, in assay [2], the binding entry was “binds”.
